Reference: PubChem BioAssay AID743454 (Peter MacCallum Cancer Centre, 2014)
Aim: 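Search for knock-downs that restore vorinostat killing in resistant colon cancer cells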 (primary screen). System: human HCT116-VR colon cancer cells, selected for vorinostat resistance. Reagents: siRNA pool against human genes, 40 nM siRNA pool. Timing: vorinostat for 24 h, read-out about 72 h after transfection. Conditions: vorinostat at 2.5 µM final. Measurement: 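Cell viability by CellTiter-Fluor and caspase 3/7 activity by luminescence, each scaled to mock wells per plate, duplicates averaged, then robust z-scored over all plates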. Direction: viability robust z-score: higher = more viable cells than screen typical; caspase robust z-score: higher = more caspase 3/7 activity than screen typical. Call rule: 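Hits are knock-downs in viability class RV1/RV2 or caspase class CA1/CA2, excluding ones that killed cells in the no-drug cell-count arm; hits then retested with single siRNAs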.
This is an unselected part of about 18,000 reagents tested. 450 of them (2.5%) count as active. 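Single biological run; no consistent viability z cut-off exists, so the class columns, not z-scores, define the calls.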 A number with no mark means an inactive call.

{"target gene": "SET", "viability hit class": "no change", "caspase hit class": "no change", "viability robust z-score": -0.61, "caspase robust z-score": -0.3}
{"target gene": "TATDN3", "viability hit class": "no change", "caspase hit class": "no change", "viability robust z-score": -0.36, "caspase robust z-score": -0.82}
{"target gene": "TSPAN11", "viability hit class": "no change", "caspase hit class": "no change", "viability robust z-score": -0.43, "caspase robust z-score": 0.17}
{"target gene": "WDR41", "viability hit class": "no change", "caspase hit class": "no change", "viability robust z-score": -0.08, "caspase robust z-score": -0.56}
{"target gene": "PLAU", "viability hit class": "no change", "caspase hit class": "no change", "viability robust z-score": -0.44, "caspase robust z-score": -0.96}
{"target gene": "SMAP2", "viability hit class": "no change", "caspase hit class": "no change", "viability robust z-score": -0.24, "caspase robust z-score": 0.1}
{"target gene": "DDX51", "viability hit class": "no change", "caspase hit class": "no change", "viability robust z-score": -0.44, "caspase robust z-score": -0.25}
{"target gene": "HDLBP", "viability hit class": "no change", "caspase hit class": "no change", "viability robust z-score": -0.18, "caspase robust z-score": -0.38}
{"target gene": "NLRP8", "viability hit class": "no change", "caspase hit class": "no change", "viability robust z-score": 0.44, "caspase robust z-score": -0.32}
{"target gene": "CPLX1", "viability hit class": "no change", "caspase hit class": "no change", "viability robust z-score": 1.62, "caspase robust z-score": 0.94}
{"target gene": "RHPN2", "viability hit class": "no change", "caspase hit class": "no change", "viability robust z-score": 0.84, "caspase robust z-score": -0.66}
{"target gene": "PRR5", "viability hit class": "no change", "caspase hit class": "no change", "viability robust z-score": -0.5, "caspase robust z-score": 0.98}
